Test results: publication PMC10163288
This is one part of the list.

B1: il2ra_site1_1z92_sap_21_mot_HHH_b2_01043_000000048_0001_39_52_H_._HHH_b2_05877_0001_0000200009_0000001_0_0001_af2pred_0001_af2pred_1_swapped (protein)
chain: SFAEALEELIEELGNPEEAAEELVKLLEKEGVPPRDALLLVLKAAKRLGDPEVRRLIEELLRELD
B2: il2ra_site2_3nfp_normal_mot_HHH_b1_01480_000000265_0001_40_57_H_._HHH_b1_04954_0001_0000300015_0000001_0 (protein)
chain: SSSSNLLELVLLAAKRFAEEANDPEVLREIEELEEEYERHGDPRYVREAFELAQELAEKLSSSSS
B3: il2ra_site2_3nfp_normal_mot_HHH_b1_00660_af2_000000090_0001_40_57_H_._HHH_b2_05434_0001_0000200014_0000001_0_af2pred_0001_af2pred (protein)
chain: SSSSDREEVQRLLEEAEELRERGNPEEAERLLREASLVAYENNDYELFALVVDVFQKVMESSSSS
B4: il2ra_site2_3nfp_sap_31_mot_HHH_b2_02823_000000034_0001_1_21_H_._HHH_b1_01203_af2_0001_0000200012_0000001_0_0001_af2pred_0001_af2pred (protein)
chain: DVERELTQLARERNDQDVFSALADILRLLDEGVPPEEIEQEVEKIIKLAGLPPEIEELLREAVRE
B5: il2ra_site2_3nfp_sap_19_mot_HHH_b1_04824_000000235_0001_40_57_H_._HHH_b2_07252_0001_0000100005_0000001_0_0001_af2pred_0001_af2pred (protein)
chain: SSSSEEEREARELLEKARELIEEGNPEEAKQVLRRAAEVAREGNDPELFLLIAEVRRQLETSSSS
B6: il2ra_site2_2erj_sap_13_mot_HHH_b1_06160_000000008_0001_39_56_H_._HHH_b2_01373_0001_0000200008_0000001_0_0001 (protein)
chain: SSSSDRETKEAARELVEEAEENNDEELLRFLLRYLRRTYEETKDPDIEELLKLIERLLEELSSSS
B7: il2ra_site2_2erj_normal_mot_HHH_b2_07568_000000046_0001_18_34_H_._HHH_b1_08573_0001_0000300019_0000001_0 (protein)
chain: SSSDEEERIRELIELVEELIEEGDTEEAEKALREASELAFELGDFELFSILAELAELLARLSSSS
B8: il2ra_site1_3nfp_sap_16_mot_HHH_b1_04788_af2_000000082_0001_25_41_H_._HHH_b1_00195_0001_0000400021_0000001_0_0001 (protein)
chain: SSSSTEEREEVLRLVEELYRALRRGDEEEFRRLFEEARELAEEINSPVARMLIEELQKNGSSSSS
B9: il2ra_site2_3nfp_sap_31_mot_HHH_b2_01820_af2_000000083_0001_22_38_H_._60f0427eb812648398e5d60769f3809b_0001_0001_0000200020_0000001_0_0001_1 (protein)
chain: SSSSSDKEEAAAAQARALAERLEDPEERRELEELAEELEEKGDPELHRELARLIYEILASSSSSS
B10: il2ra_site1_3nfp_normal_mot_HHH_b1_02400_af2_000000128_0001_43_56_H_._HEEHE_3114_0001_0000100006_0000001_0 (protein)
chain: LDAEHASKMIEEALKSLGAKSFEVEVSNNEVEVTVEGDDERSEEVREAAERVAKAVGVPVEVESL
B11: il2ra_site2_3nfp_normal_mot_HHH_b1_00660_af2_000000090_0001_40_57_H_._HHH_b1_07326_af2_0001_0001200073_0000001_0_af2pred_0001_1_af2pred_swapped (protein)
chain: SSSSSSSLEELIERIEELLERGDPEEAREIVREAAHVAYELNDHEAFAILVELLNLIDSSSSSSS
B12: il2ra_site2_3nfp_sap_22_mot_HHH_b2_08086_000000129_0001_21_37_H_._HHH_b2_00706_0001_0000200021_0000001_0_0001_af2pred_0001_af2pred (protein)
chain: DVERRLFELARERNDPDVLRALLLIRKLKEEGVPPEEIEQEVEKIIKRAGLPPEIEELLREAVRE
B13: il2ra_site1_3nfp_normal_mot_HHH_b1_06312_000000199_0001_1_18_H_._HHH_b1_03473_af2_0001_0000400031_0000001_0_af2pred_dldesign_0_af2pred (protein)
chain: SSSSRERLLAAFEEASALYTAGKPEEALEALRAAEAEARAAGMNALARFLRICRENVEKLISSSS
B14: il2ra_site1_3nfp_sap_16_mot_HHH_b1_07561_af2_000000074_0001_22_38_H_._3c6e6c7a1689b1ff61bc13c65436e505_0001_1_0001_0000800023_0000001_0_0001_af2pred_0001_af2pre … (protein)
chain: SEEKYIKDIIRTLEQIPNPRVRELAEEAEELLENGDPEEALKVLKEAAELLGDPNARRLIERALN
B15: il2ra_site1_1z92_normal_mot_7d8fec69ab3f203d40951262a957afce_0001_af2_000000065_0001_53_65_H_._2dbe003d1ac158754a55d59e89b30524_0001_1_af2_0001_0000300018_00000 … (protein)
chain: SELKALLERVLDELAAENPREAVVIGQLRAKLERDPEAAARHLLRLLKVAGRPDVVAELEKLLEE
B16: il2ra_site2_2erj_sap_23_mot_9983d6beee032e3819f467d055548630_0001_1_000000194_0001_16_32_H_._bee18c9904f98e661b1e98a71a1d884a_0001_af2_0001_0000200025_0000001_0 … (protein)
chain: SSSSDLTEEADELVWRAMEDPEFIEEARELLEELLERAEERGDEEAAESIRAALRLLEWGSSSSS
B17: il2ra_site1_2b5i_normal_mot_HHH_b2_04052_af2_000000090_0001_1_15_H_._HHH_b2_00976_0001_0000100008_0000001_0_af2pred_dldesign_0_af2pred (protein)
chain: SSSSSSPERRQFDLVFRARNAAARGDYARLRELLAELRELADATDDEQLRAIAAELEARLSSSSS
B18: il2ra_site2_2erj_normal_mot_HHH_b1_08474_af2_000000004_0001_1_19_H_._HHH_b2_03419_0001_0000100001_0000001_0_af2pred_0001_af2pred (protein)
chain: SSSSSDELEELIEQAEELLEEGDHEEAFRILLEAAEIAAKNEDDETLERILRLSFEVFKSSSSSS
B19: il2ra_site2_3nfp_normal_mot_HHH_b1_00660_af2_000000090_0001_40_57_H_._HHH_b2_06895_0001_0000600025_0000001_0_af2pred_0001_af2pred_1_swapped (protein)
chain: SSSSDQEVRELLEEVEELLERGDYEEARRLLERAAELARQLGDRELILKIIELRELLDELSSSSS
B20: il2ra_site2_3nfp_normal_mot_HHH_b2_06150_000000217_0001_39_53_H_._HHH_b2_03993_af2_0001_0000700011_0000001_0 (protein)
chain: SSSSSEEEEEVEKLIEKAEELLERGNPEKAQKVLQRATHIAYRINNPRLFYLLAELLELVASSSS
B21: il2ra_site2_3nfp_normal_mot_HHH_b1_05158_000000192_0001_1_17_H_._HHH_b1_05195_0001_0000600013_0000001_0_af2pred_0001_af2pred (protein)
chain: SSSSSSDSELTFLLILLEALLEEVDDPEIRELLEEALEELREKKDPEIARKVLKEASEYLSSSSS
B22: il2ra_site1_1z92_sap_20_mot_HHH_b2_05038_af2_000000006_0001_39_52_H_._HHH_b1_04938_0001_0000200009_0000001_0_0001 (protein)
chain: DEEHIAWAALWLAGGDPERVERVLKYMIKKARERGDPEMTEAAEEVLRILEEDPEEFKELVERAK
B23: il2ra_site2_3nfp_normal_mot_HHH_b2_06150_000000217_0001_39_53_H_._HHH_b2_03993_af2_0001_0000300005_0000001_0_af2pred_0001_af2pred (protein)
chain: SSSSSEEEEEVRRLIEEARELLERGNPEKAKEVLEKAAQIAIEINNPELFLILLELRHLVESSSS
B24: il2ra_site2_3nfp_normal_mot_HHH_b1_04960_000000149_0001_23_39_H_._HHH_b1_08457_0001_0000400039_0000001_0 (protein)
chain: SSSSDAEELVKELEEKLEEAEKEGDEELLEKLAFELFALAVDLQDRRLAALAAEIFIRLRSSSSS

Target: il2ra, P01589
Assay: yeast display titration

Apparent Kd, inactive:
B1 no binding seen
B2 no binding seen
B3 no binding seen
B4 no binding seen
B5 no binding seen
B6 no binding seen
B7 no binding seen
B8 no binding seen
B9 no binding seen
B10 no binding seen
B11 no binding seen
B12 no binding seen
B13 no binding seen
B14 no binding seen
B15 no binding seen
B16 no binding seen
B17 no binding seen
B18 no binding seen
B19 no binding seen
B20 no binding seen
B21 no binding seen
B22 no binding seen
B23 no binding seen
B24 no binding seen

A section from further up:
Apparent Kd, inactive:
B21 no binding seen
B22 no binding seen
